Results reported in the supplement of paper PMC10849652.
The list shows a part of the results.

Chains of the proteins cited; added tags and fusions are not shown. Lines headed by an entry give the natural chain unless they say otherwise; changes in a name come on top.
UniProt Q9UMY1: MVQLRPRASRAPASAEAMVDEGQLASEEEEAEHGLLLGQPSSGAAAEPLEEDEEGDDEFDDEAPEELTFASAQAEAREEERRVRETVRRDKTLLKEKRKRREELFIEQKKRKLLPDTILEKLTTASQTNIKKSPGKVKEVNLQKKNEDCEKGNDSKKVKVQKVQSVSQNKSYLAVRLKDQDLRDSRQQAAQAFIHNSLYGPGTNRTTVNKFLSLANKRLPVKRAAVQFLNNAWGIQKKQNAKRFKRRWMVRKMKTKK
UniProt Q14934: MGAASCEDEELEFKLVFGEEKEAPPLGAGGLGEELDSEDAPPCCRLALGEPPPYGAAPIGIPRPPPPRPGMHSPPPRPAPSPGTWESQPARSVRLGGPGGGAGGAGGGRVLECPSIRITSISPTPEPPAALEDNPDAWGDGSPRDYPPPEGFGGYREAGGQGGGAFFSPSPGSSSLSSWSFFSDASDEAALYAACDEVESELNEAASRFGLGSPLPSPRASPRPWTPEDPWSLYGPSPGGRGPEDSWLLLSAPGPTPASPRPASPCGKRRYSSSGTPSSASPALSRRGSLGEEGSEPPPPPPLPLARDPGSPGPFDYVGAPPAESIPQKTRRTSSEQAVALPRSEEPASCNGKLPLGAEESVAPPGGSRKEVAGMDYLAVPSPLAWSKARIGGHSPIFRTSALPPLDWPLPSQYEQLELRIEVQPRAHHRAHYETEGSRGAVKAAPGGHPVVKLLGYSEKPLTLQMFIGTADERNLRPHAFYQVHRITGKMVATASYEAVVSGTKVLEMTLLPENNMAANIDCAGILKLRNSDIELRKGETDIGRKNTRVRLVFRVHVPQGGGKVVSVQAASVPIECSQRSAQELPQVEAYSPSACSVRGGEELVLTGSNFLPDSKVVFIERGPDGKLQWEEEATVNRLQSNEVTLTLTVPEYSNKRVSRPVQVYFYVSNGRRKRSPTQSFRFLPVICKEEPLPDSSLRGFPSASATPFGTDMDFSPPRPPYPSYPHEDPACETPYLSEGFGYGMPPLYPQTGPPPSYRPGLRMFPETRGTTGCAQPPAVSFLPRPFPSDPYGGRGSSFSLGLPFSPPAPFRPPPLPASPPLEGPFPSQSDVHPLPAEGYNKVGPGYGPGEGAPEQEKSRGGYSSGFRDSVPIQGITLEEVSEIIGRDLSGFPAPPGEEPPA
UniProt Q9Y314: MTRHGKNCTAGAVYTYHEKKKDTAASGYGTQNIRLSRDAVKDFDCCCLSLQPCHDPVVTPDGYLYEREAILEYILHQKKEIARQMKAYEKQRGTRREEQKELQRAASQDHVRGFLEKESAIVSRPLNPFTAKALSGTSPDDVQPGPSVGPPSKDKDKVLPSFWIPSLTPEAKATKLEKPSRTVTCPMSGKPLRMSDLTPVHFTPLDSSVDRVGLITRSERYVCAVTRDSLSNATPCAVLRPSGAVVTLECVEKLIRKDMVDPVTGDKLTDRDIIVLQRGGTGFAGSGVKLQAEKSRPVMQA
UniProt Q9Y2X3: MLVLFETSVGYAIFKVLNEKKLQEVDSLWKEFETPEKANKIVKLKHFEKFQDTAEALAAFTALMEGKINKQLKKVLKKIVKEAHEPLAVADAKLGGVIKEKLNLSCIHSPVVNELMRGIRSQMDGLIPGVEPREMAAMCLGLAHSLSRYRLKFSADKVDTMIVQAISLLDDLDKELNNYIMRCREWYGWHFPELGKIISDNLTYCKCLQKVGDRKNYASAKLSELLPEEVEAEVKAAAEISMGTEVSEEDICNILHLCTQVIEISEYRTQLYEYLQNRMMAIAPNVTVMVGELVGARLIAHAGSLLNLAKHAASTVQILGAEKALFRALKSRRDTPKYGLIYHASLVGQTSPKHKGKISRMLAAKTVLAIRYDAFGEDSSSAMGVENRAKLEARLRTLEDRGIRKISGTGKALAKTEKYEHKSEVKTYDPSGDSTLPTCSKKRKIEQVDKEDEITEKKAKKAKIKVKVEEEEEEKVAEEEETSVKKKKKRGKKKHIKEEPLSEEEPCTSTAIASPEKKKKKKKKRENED
UniProt O60361, whole entry, looked up: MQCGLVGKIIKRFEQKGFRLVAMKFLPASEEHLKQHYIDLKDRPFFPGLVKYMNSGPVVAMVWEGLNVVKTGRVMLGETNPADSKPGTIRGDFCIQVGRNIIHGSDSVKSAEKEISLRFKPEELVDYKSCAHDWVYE
UniProt Q96IY1: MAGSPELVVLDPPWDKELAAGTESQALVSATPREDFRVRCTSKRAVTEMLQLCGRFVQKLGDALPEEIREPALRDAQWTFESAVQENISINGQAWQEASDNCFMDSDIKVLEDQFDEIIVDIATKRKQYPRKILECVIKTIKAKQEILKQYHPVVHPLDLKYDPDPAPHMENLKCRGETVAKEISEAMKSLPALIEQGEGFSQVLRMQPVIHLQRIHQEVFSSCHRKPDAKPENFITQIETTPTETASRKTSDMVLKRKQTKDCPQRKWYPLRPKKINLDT
UniProt Q16656: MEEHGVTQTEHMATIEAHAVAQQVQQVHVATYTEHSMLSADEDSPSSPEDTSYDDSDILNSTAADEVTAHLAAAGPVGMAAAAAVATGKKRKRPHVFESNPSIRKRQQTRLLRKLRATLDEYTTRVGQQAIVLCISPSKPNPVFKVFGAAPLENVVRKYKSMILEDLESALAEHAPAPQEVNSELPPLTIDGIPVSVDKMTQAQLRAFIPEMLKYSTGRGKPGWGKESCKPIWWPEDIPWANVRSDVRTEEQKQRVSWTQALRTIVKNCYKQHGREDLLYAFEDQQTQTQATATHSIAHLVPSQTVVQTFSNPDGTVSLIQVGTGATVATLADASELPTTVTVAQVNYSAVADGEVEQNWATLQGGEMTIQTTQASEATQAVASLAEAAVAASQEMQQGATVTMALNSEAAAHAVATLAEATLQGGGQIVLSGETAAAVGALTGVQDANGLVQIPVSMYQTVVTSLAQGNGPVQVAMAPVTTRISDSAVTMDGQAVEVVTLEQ
UniProt P55786: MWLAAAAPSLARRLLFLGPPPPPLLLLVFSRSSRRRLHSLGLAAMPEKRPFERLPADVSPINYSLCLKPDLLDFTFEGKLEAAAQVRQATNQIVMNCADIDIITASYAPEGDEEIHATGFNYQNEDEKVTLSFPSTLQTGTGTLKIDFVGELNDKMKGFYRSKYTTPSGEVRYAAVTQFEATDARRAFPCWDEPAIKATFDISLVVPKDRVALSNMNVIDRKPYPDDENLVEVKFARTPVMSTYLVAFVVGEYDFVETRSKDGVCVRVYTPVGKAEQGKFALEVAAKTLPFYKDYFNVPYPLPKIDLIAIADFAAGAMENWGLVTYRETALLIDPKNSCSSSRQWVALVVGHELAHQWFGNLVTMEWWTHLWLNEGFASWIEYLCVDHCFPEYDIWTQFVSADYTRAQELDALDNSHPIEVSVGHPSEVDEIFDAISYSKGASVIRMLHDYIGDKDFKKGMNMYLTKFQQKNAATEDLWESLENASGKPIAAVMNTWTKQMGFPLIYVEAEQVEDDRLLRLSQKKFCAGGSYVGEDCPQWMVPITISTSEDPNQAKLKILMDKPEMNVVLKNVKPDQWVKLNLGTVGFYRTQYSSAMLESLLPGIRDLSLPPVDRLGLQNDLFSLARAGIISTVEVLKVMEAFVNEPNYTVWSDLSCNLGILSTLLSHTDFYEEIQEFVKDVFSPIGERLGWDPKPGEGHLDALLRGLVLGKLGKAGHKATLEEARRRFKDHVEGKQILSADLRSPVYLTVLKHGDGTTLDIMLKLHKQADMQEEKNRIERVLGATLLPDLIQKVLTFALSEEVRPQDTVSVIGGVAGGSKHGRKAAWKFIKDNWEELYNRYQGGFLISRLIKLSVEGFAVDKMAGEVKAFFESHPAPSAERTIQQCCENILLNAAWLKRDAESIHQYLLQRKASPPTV
UniProt Q96IV0: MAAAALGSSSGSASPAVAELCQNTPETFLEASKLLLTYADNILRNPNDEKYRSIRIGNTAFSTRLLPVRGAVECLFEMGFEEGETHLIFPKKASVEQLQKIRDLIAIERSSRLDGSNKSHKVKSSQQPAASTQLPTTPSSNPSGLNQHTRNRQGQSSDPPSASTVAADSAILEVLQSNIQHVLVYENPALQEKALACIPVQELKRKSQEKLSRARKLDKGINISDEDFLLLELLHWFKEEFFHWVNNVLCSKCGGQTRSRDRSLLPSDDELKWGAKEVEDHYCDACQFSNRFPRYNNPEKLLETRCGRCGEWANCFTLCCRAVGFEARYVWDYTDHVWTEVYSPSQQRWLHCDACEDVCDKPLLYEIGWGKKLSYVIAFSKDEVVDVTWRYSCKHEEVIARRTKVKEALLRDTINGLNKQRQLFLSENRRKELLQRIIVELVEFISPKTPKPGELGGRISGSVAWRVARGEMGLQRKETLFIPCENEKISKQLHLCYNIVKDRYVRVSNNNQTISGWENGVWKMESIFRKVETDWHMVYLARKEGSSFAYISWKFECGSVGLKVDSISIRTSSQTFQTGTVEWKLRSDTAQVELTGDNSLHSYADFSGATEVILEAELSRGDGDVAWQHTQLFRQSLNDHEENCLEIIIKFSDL
UniProt O75607: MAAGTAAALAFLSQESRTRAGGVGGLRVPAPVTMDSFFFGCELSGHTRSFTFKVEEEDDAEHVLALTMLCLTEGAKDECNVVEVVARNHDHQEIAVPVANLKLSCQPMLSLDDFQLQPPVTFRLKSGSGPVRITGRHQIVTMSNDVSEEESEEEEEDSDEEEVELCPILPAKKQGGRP
UniProt O60936: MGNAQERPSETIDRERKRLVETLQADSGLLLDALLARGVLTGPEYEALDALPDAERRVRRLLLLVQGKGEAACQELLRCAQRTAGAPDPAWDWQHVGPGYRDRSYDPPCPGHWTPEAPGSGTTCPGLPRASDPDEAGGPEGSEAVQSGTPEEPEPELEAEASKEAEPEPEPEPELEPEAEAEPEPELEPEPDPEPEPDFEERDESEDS
UniProt Q12968: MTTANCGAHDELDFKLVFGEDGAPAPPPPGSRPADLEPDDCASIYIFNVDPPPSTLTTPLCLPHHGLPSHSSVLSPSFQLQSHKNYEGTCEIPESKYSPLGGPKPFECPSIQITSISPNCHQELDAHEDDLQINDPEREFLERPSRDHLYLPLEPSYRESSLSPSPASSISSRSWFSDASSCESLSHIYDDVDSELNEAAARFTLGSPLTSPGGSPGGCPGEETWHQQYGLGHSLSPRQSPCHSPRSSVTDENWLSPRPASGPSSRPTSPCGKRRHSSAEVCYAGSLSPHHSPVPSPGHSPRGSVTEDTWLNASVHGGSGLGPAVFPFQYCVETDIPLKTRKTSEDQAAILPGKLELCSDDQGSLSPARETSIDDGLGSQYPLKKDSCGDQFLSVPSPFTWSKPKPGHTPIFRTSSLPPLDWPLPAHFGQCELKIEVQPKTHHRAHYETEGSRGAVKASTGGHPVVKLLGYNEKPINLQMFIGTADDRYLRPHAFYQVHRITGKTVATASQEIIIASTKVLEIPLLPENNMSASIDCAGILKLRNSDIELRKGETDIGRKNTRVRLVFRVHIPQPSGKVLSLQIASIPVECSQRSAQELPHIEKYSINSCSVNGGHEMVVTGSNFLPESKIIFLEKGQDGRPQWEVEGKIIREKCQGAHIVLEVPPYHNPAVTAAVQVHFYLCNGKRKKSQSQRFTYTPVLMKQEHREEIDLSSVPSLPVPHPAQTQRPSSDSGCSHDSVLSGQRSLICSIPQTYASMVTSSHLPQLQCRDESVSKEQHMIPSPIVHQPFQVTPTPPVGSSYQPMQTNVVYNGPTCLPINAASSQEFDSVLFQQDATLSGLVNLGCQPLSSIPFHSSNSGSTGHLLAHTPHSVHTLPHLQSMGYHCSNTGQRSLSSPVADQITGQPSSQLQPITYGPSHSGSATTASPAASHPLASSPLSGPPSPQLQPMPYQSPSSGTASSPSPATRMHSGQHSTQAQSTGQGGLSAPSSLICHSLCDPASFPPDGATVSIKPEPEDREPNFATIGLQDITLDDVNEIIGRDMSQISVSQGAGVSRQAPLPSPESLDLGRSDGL
UniProt Q96D46: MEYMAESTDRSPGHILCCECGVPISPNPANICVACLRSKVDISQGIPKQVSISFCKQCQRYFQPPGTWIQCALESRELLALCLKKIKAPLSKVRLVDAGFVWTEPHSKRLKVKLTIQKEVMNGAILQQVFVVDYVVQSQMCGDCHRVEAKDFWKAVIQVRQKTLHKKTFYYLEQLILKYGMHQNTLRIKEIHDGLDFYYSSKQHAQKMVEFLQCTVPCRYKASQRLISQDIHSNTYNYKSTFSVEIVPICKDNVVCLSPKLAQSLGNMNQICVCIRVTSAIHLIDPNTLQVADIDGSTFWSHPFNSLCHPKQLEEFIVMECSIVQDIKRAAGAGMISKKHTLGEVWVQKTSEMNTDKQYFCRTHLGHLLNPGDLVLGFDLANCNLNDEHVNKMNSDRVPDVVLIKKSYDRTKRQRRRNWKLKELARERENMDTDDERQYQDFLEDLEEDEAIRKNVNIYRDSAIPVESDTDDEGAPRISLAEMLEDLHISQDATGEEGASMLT

Legend:
Assay in all cases: log2 fold change, soluble protein after heating vs DMSO (PISA); higher = thermal stabilisation; K562 cells, 10 uM, 30 min; active = over 0.2 and 3.5 SD of the protein, either way, in both replicates (recomputed)
[1] = compound: CC[C@@H]1C(=O)N(C)c2cnc(Nc3ccc(C(=O)NC4CCN(C)CC4)cc3OC)nc2N1C1CCCC1
How it was run: (§1)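 K562 cells at 2×10^6 cells/mL were exposed to 10 μM compound for 30 min, then aliquots were heated for 3 min across 48°C-58°C, pooled, and extracted in PBS containing 0.5% NP-40 at 4°C. The supernatant after 21,000xg for 90 min was taken as soluble protein and measured by TMTpro 16plex LC-MS/MS with channel sums equalised. Thermal stability is reported relative to control samples, with values from duplicates. Fold changes are given on a log2 scale.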

volasertib = compound: CC[C@@H]1C(=O)N(C)c2cnc(Nc3ccc(C(=O)N[C@H]4CC[C@H](N5CCN(CC6CC6)CC5)CC4)cc3OC)nc2N1C(C)C [volasertib]
How it was run: as §1

[2] = compound: CC[C@H](C)N1C=C(C2=C(C=C(C=C21)C3=CN=C(C=C3)N4CCNCC4)C(=O)NCC5=C(C=C(NC5=O)C)C)C
How it was run: as §1

epoxomicin = compound: CC[C@H](C)[C@@H](C(=O)N[C@@H]([C@@H](C)O)C(=O)N[C@@H](CC(C)C)C(=O)[C@]1(CO1)C)NC(=O)[C@H]([C@@H](C)CC)N(C)C(=O)C [epoxomicin]
How it was run: as §1

[3] = compound: CCn1cc(-c2ccnc3[nH]c(-c4cccc(CN(C)C)c4)cc23)c(-c2ccc(NC(=O)N(C)C)cc2)n1
How it was run: as §1

[4] = compound: CN(C)CC(=O)Nc1ccc2[nH]c(=O)c3ccccc3c2c1
How it was run: as §1

[5] = compound: CN1C2=C(C3=C1C(=O)N(N=C3)CC4=CC(=CC=C4)N)SC(=C2)S(=O)C
How it was run: as §1

[6] = compound: CN1CCC(CNc2ccc3ncc(-c4cccc(OC(F)(F)F)c4)n3n2)CC1
How it was run: as §1

rosiglitazone = compound: CN(CCOC1=CC=C(C=C1)C[C@H]2C(=O)NC(=O)S2)C3=CC=CC=N3 (racemic) [rosiglitazone]
How it was run: as §1

[7] = compound: CCn1c(C(=O)N(C2CC2)C2CC2)cc2c3c(ncn3C)c(Nc3cc(C)n(C)n3)nc21
How it was run: as §1

Measured: log2 fold change

NOL7 (UniProt Q9UMY1)
inactive: [1] 0.226 | volasertib 0.417 | [2] -0.086 | epoxomicin -0.338 | [3] 0.232 | [4] -0.123 | [5] 0.316 | [6] 0.237

NOB1 (UniProt Q9ULX3)
inactive: [1] -0.053 | volasertib -0.026 | [2] 0.093 | epoxomicin -0.02 | [3] 0.026 | [4] -0.011 | [5] 0.04 | [6] -0.049

NOLC1 isoform 2 (UniProt Q14978)
inactive: [1] -0.155 | volasertib -0.024 | [2] -0.051 | epoxomicin -0.06 | [3] 0.047 | [4] -0.048 | [5] 0.026 | [6] -0.112

NFATC4 isoform 2 (UniProt Q14934)
inactive: [1] 0.125 | volasertib 0.272 | epoxomicin 0.017 | [3] 0.042 | [4] -0.03 | rosiglitazone 0.124 | [5] -0.004 | [6] -0.095

NFX1 (UniProt Q12986)
inactive: [1] 0.029 | volasertib 0.15 | [2] -0.001 | epoxomicin -0.144 | [3] 0.232 | [4] -0.216 | [5] 0.128 | [6] 0.197

NOSIP (UniProt Q9Y314)
inactive: [1] -0.373 | [2] 0.151 | epoxomicin 0.104 | [3] -0.017 | [4] 0.196 | [5] 0.109 | [6] 0.097
active: volasertib -1.06

NELFB isoform 2 (UniProt Q8WX92)
active: volasertib -0.68
inactive: [1] -0.176 | [2] 0.118 | epoxomicin 0.072 | [3] -0.012 | [4] 0.068 | [5] -0.02 | [6] -0.116

NOP58 (UniProt Q9Y2X3)
inactive: [1] 0.095 | volasertib -0.066 | [2] 0.057 | epoxomicin -0.263 | [3] 0.192 | [4] 0.052 | [5] 0.234 | [6] 0.2

NME2P1 (UniProt O60361)
inactive: [1] 0.117 | volasertib 0.03 | [2] -0.177 | epoxomicin 0.033 | [3] 0.198 | [4] -0.021 | [6] -0.074

NPC1 (UniProt O15118)
inactive: [1] -0.016 | volasertib -0.072 | [2] -0.031 | epoxomicin -0.02 | [3] 0.005 | [4] -0.029 | [5] 0.004 | [6] 0.012

NSL1 (UniProt Q96IY1)
inactive: [1] -0.014 | volasertib -0.34 | [2] 0.181 | [7] 0.06 | [3] -0.15 | [4] 0.042 | rosiglitazone -0.056 | [5] -0.105 | [6] -0.421

NIPSNAP3B (UniProt Q9BS92)
inactive: [1] -0.238 | volasertib -0.028 | [2] 0.039 | [3] -0.019 | [4] -0.088 | [5] -0.176 | [6] 0.073

NOP2 isoform 4 (UniProt P46087)
inactive: [1] 0.196 | volasertib 0.348 | [2] -0.03 | epoxomicin -0.328 | [3] 0.364 | [4] -0.346 | [5] 0.546 | [6] 0.494

NRF1 isoform 4 (UniProt Q16656)
active: volasertib -0.501
inactive: [1] -0.173 | [2] 0.087 | epoxomicin 0.268 | [3] 0.035 | [4] 0.08 | [5] -0.084 | [6] 0.037

NMNAT3 (UniProt Q96T66)
inactive: [1] -0.005 | volasertib -0.084 | epoxomicin 0.005 | [7] -0.122 | rosiglitazone -0.258 | [5] -0.174

NPEPPS (UniProt P55786)
inactive: [1] -0.005 | volasertib -0.023 | [2] 0.079 | epoxomicin -0.022 | [3] -0.102 | [4] 0.007 | [5] -0.098 | [6] -0.141

NMT2 (UniProt O60551)
inactive: [1] 0.013 | volasertib -0.177 | [2] 0.039 | epoxomicin 0.01 | [3] -0.098 | [4] -0.013 | [5] 0.002 | [6] -0.208

NGLY1 (UniProt Q96IV0)
active: volasertib -0.367
inactive: [1] -0.07 | [2] 0.04 | epoxomicin -0.071 | [3] -0.03 | [4] 0.055 | [5] 0.044 | [6] -0.116

NNT (UniProt Q13423)
inactive: [1] 0 | volasertib 0.013 | [2] 0.036 | epoxomicin 0.023 | [3] -0.073 | [4] 0.015 | [5] -0.097 | [6] -0.008

NFE2 (UniProt Q16621)
inactive: [1] -0.136 | volasertib -0.227 | [2] 0.018 | epoxomicin 0.173 | [3] 0.084 | [4] 0.273 | [5] -0.015 | [6] -0.145

NFYB (UniProt P25208)
inactive: [1] 0.008 | volasertib 0.019 | [2] -0.029 | [3] -0.055 | [4] -0.011 | [5] 0.031 | [6] 0.085

NPM3 (UniProt O75607)
inactive: [1] 0.065 | volasertib 0.124 | [2] -0.099 | [3] 0.014 | [4] -0.011 | [5] 0.143 | [6] 0.145

NISCH (UniProt Q9Y2I1)
active: volasertib -0.487 | [6] -0.518
inactive: [1] -0.349 | [2] 0.025 | epoxomicin 0.05 | [3] -0.121 | [4] 0.02 | [5] 0.086

NOL3 isoform 3 (UniProt O60936)
inactive: [1] 0.054 | volasertib 0.014 | [2] 0.055 | epoxomicin -0.037 | [4] 0.201 | [5] -0.038

NFATC3 (UniProt Q12968)
inactive: [1] 0.038 | volasertib -0.331 | [2] 0.073 | epoxomicin -0.046 | [3] -0.038 | [4] 0.049 | [5] 0.036 | [6] 0.039

Pulled one by one from the entries so far (two):
NOL3 isoform 3 (UniProt O60936)
inactive: [1] 0.054 | volasertib 0.014 | [2] 0.055 | epoxomicin -0.037 | [4] 0.201 | [5] -0.038

NISCH (UniProt Q9Y2I1)
active: volasertib -0.487 | [6] -0.518
inactive: [1] -0.349 | [2] 0.025 | epoxomicin 0.05 | [3] -0.121 | [4] 0.02 | [5] 0.086

Further results follow:

NMD3 (UniProt Q96D46)
inactive: [1] 0.103 | volasertib 0.151 | [2] -0.009 | epoxomicin 0.042 | [3] -0.163 | [4] 0.04 | [5] -0.138 | [6] 0.114

NOS1AP (UniProt O75052)
inactive: [1] 0.092 | volasertib 0.035 | epoxomicin 0.056 | [4] 0.225

NOL12 (UniProt Q9UGY1)
inactive: volasertib 0.398 | [2] 0.025 | epoxomicin -0.355 | [7] -0.051 | [3] 0.277 | [4] -0.08 | rosiglitazone -0.18 | [5] 0.317 | [6] 0.462

NOL6 (UniProt Q9H6R4)
inactive: volasertib -0.019 | epoxomicin -0.102 | [3] 0.049 | [4] -0.278 | rosiglitazone -0.071 | [5] 0.227 | [6] 0.165

NFATC1 (UniProt O95644)
inactive: [1] -0.01 | volasertib -0.174 | epoxomicin 0.227 | [4] -0.114
